# Test results as given in the supplement of paper PMC10338343.
# ± gives the standard deviation. This is a selection; strong and weak results do not stand in their true shares. The uncertainty is large for many entries.
# Tested on: MILI (PIWIL2) piRISC loaded with piRNA #2 (26 nt)
# Assay: pre-steady-state target cleavage rate (min^-1); MIWI and MILI are mouse PIWI proteins and EfPiwi is from a freshwater sponge; tags in brackets are library labels; higher = faster piRNA-guided slicing of the target
# Details: guide: piRNA #2 5'p-UUAGGUAACCCAGUAGAUCCAGAGGA; auxiliary factor: 500 nM mouse GTSF1
# Procedure, shortened: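 The pre-steady-state cleavage rate was obtained by Cleave-'n-Seq with a burst-and-steady-state fit. A transcribed, DNA-blocked target RNA library (0.1 nM) was mixed with 1 nM active affinity-purified piRISC carrying one synthetic guide, with or without 500 nM GTSF1 partner protein, in HEPES–potassium acetate buffer at 33 °C for 0–8 or 0–960 min. Uncleaved targets were sequenced and normalised to depth and to weakly complementary targets, with three trials pooled and k3 capped at 0.0001 min^-1.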
row,Sequence,pre-steady-state target cleavage rate
1,CUUAAGGAGACCUAGAUCUGGGUCUACCUAA,0.000496 ± 0.019
2,CUUAAGGACUGGUUCUACUGGGUUUCCUAA,0.00183 ± 0.013
3,CUUAAGCUCUGGAUCUACUGGCUUACCUUA,0.000513 ± 0.015
4,CUUAAGGACGUGGAUCUACUGGGUUACCUAA,0.0179 ± 0.02
5,CUUAAGGAGACCUUCUACUGGAGUUACCUAA,0.00084 ± 0.0088
6,CUUAAGGAGACCAUCUACUGGGUUAGCUAA,0.000777 ± 0.0084
7,CUUAAGGAGACCAUCUACUAGGGUUACCUAA,0.0014 ± 0.0065
8,CUUAAGCUCUGGAUCAACUGGCUUACCUAA,0.000417 ± 0.02
9,CUUAAGGACUGCAUCUACUGGGUUACGUAA,0.00269 ± 0.0097
10,CUUAAGGACUGUAUCUACUGGGUUACCUAA,0.002 ± 0.016
11,CUUAAGGAGACCUAGUUACUGGGUUACCUAA,0.000109 ± 0.042
12,CUUAAGGAGACGUUCUAGUGGGUUACCUAA,0.000892 ± 0.009
13,CUUAAGGAGACCUUCUACUGGGUUACCAUA,0.000608 ± 0.011
14,CUUAAGGAGACCUACUACGUGGGUUACCUAA,0.000355 ± 0.026
15,CUUAAGGAGACGAUCUACUCGGUUACCUUA,0.000649 ± 0.013
16,CUUAUCCUCUGGAUGUACUGGGUUACCUAA,0.108 ± 0.022
17,CUUAAGCUCUGGAUCUACUGCGGUUACCUAA,0.000139 ± 0.03
18,CUUAAGGAGACCUAGAUGUGGGUUAACCUAA,0.000229 ± 0.026
19,CUUAAGGAGACCUACUUACUGGGUUACCUAA,0.000347 ± 0.018
20,CUUAAGGAGUGGAGUCUACUGGGUUACCUAA,0.00184 ± 0.0056
21,CUUAAGGAGACGAUCUACAGGGUUACCUUA,0.00278 ± 0.0056
22,CUUAAGGAGUGGAUCUACUGCGUUACCAAA,0.000826 ± 0.018
23,CUUAAGGAGACCUAGAUCUGGGUUACCUGA,0.000141 ± 0.074
24,CUUAAGGAGACCUAGAACAGGGUUACCUUA,0.000318 ± 0.021

row,Sequence,pre-steady-state target cleavage rate
1,CUUAAGGAGUGGAACUACUGGGUUACCAAA,0.000388 ± 0.031
2,CUUAAGGAGAGGAUCUACUGGGUUACCUGAA,0.00369 ± 0.0055
3,CUUAAGGAGACGAUCAACUGGGUUACCUUA,0.000875 ± 0.0081
4,CUUAAGGAGACCAUGUACUGGGUUACCUAA,0.001 ± 0.0083
5,CUUAAGGAGCGGAUCUACUGGGUUACCUAA,0.00694 ± 0.01
6,CUUAAGGAGUGCAUCUACUGGGAUACCUAA,0.000781 ± 0.015
7,CUUAAGGUCUGGAUCUACUGUGGUUACCUAA,0.000957 ± 0.0082
8,CUUAAGGAGACCUACUACGGGUUACCUAA,0.000322 ± 0.025
9,CUUAAGGUCUGGAAGAACUGGGUUACCUAA,0.00324 ± 0.011
10,CUUAUCCUCUGGAUCUACUCGGUUACCUUA,0.003 ± 0.0052
11,CUUAAGGUCUGGAUCAUACUGGGUUACCUAA,0.000993 ± 0.0058
12,CUUAAGGAGACCAUCUAAUGGGUUACCUAA,0.000664 ± 0.013
13,CUUAUCCUCUGGAUCUACUGGCAUACCUAA,0.000228 ± 0.016
14,CUUAAGGAGUGGAUCUACUGGGAUACCUUA,0.00157 ± 0.0069
15,CUUAAGGAGUGGAUCUACUGGUUACCUAA,0.00125 ± 0.011
16,CUUAAGGAGACCUUCUACUGGGUUACCUAC [g2:g17:cont:t1C],0.000722 ± 0.017
17,CUUAAGGAGAGGAUCUACUGUGGUUACCUAA,0.00104 ± 0.01
18,CUUAAGGAGACGAUCUACUGGGUGUACCUAA,0.000832 ± 0.011
19,CUUAAGGUCUGGAUCUACUGGGUAACGUAA,0.00171 ± 0.0069
20,CUUAAGGAGAGGAUCUUCAGGGUUACCUAA,0.00103 ± 0.01
21,CUUAAGGAGAGGUUCUACUCGGUUACCUAA,0.000778 ± 0.0088
22,CUUAAGGAGACGAUCUCACUGGGUUACCUAA,0.00015 ± 0.048
23,CUUAAGGAGACGAUCUACUGGGUUGACCUAA,0.000876 ± 0.0064
24,CUUACCCUCUGGAUCUACUGGGUUACCUAA,0.11 ± 0.016

row,Sequence,pre-steady-state target cleavage rate
1,CUUAAGGACUGGAUCUACUGGGAUUCCUAA,0.000166 ± 0.039
2,CUUAAGGAGACCAUCUACUGGAUUACCUAA,0.00106 ± 0.007
3,CUUAAGGAGACCUUCUAGUGGGUUACCAAA,0.000651 ± 0.022
4,CUUAAGGAGAGGUACUACUGGGUUACCUAA,0.00107 ± 0.0085
5,CUUAAGGAGACCAACUUCUGGGUUACCUAA,0.000828 ± 0.011
6,CUUAAGGAGACCUUCUACAGGGUUACCUAA,0.00113 ± 0.0049
7,CUUAAGGAGACCUAGUACUGCGUUACCUUA,0.000224 ± 0.029
8,CUUAAGGAGUGGAUCUACUGAGGUUACCUAA,0.0004 ± 0.013
9,CUUAAGGAGAGGAUCUACUGCGUUUCCUAA,0.00133 ± 0.0064
10,CUUAAGGAGACCUAGUACUGGGUUCACCUAA,0.00031 ± 0.027
11,CUUAAGGAGACCUAGAUCCUGGGUUACCUAA,0.000411 ± 0.021
12,CUUAAGGACUGGUUCUACUGGGAUACCUAA,0.00377 ± 0.011
13,CUUAACCUCUGGAUCUACUGGCUUACCAAA,0.000518 ± 0.013
14,CUUAAGGAGACCAUCUACUGGUUUACCUAA,0.000718 ± 0.0095
15,CUUAUCCUCUGGAUCUACUGGAUUACCUAA,0.0307 ± 0.0083
16,CUUAAGGAGACGAUCUACUGGGUUACCUAC [g2:g19:cont:t1C],0.00107 ± 0.013
17,CUUAAGGACUGGAUCUACUGCGUUACCAAA,0.000569 ± 0.03
18,CUUAAGGAGUGGAUGUACUGGGUUAGCUAA,0.00198 ± 0.013
19,CUUAACCUCUGGAUCUACUCGGUUACCUUA,0.00189 ± 0.0079
20,CUUAAGGAGACGAUCUGCUGGGUUACCUAA,0.00247 ± 0.0045
21,CUUAAGGAGACCAUCUACUGGGUUACGUUA,0.000277 ± 0.035
22,CUUAAGGAGACCUUCUACUGGGUUACCUAA [g2:g17:cont:t1A],0.00117 ± 0.0051
23,CUUAAGCUCAGGAUCUACUCGGUUACCUAA,0.000954 ± 0.017

# Taken from the entries so far for reference:
row,Sequence,pre-steady-state target cleavage rate
3,CUUAAGGAGACCUUCUAGUGGGUUACCAAA,0.000651 ± 0.022
4,CUUAAGGAGAGGUACUACUGGGUUACCUAA,0.00107 ± 0.0085
5,CUUAAGGAGACCAACUUCUGGGUUACCUAA,0.000828 ± 0.011

# Some of the entries so far, bar-delimited:
row | Sequence | pre-steady-state target cleavage rate
2 | CUUAAGGAGACCAUCUACUGGAUUACCUAA | 0.00106 ± 0.007
3 | CUUAAGGAGACCUUCUAGUGGGUUACCAAA | 0.000651 ± 0.022
